Laboratory results as given in the supplement of paper PMC8551327.
Counter-ions that a name gives are not always drawn. The list shows a part of the results. No stated cut-off is given here; in the data, active = 1.25 or more and inactive = the rest. Many values rest on one well or one pass, so single values are uncertain.

test system: Kcc2-LUC knock-in mouse primary cortical neurons (Kcc2 promoter reporter); assay: Kcc2 promoter-driven luciferase activity relative to vehicle control (fold of vehicle (ratio)); higher = stronger Kcc2 promoter activation (Kcc2 expression enhancer); conditions: 100 nM; 48 h

SMILES | Kcc2 promoter-driven luciferase activity
Nc1ccn([C@@H]2O[C@H](CO)[C@@H](O)[C@@H]2O)c(=O)n1 [Cytarabine Hydrochloride] | active: 1.44
Cc1[nH]c(=O)nc(N/N=C/c2ccc(Cl)cc2)c1C(=O)Nc1ccc(Cl)cc1 [Pyrimidine-5-carboxamide,2-dihydro- 6-methyl-2-oxo-] | inactive: 1.24
CN/N=C(\C)C(CN1CCCCC1)C(C1=C(O)c2ccccc2OC1)c1ccccc1 (stereo not drawn) | inactive: 1.2
CN1CCCC2C(c3ccccc3)C(C3=NCCCC3)C(c3ccccc3)CC21 (stereo not drawn) [Lobinaline, monohydrochloride] | inactive: 0.88
O=C1c2ccccc2C(=O)c2sc(Nc3ccc(Cl)cc3)nc21 [2-(4-Chloroanilino)benzo[f][1,3]benzothiazole-4,9-dione] | inactive: 0.87
COC(=O)C1C(O)CCC2CN3CCc4c([nH]c5ccccc45)C3CC21 (stereo not drawn) [beta-Yohimbine] | inactive: 1.09
CCN(CC)CC(C)(C)C(=O)/C=C/c1ccc(C)cc1 | inactive: 1.13
CN(C)CCCN1c2ccccc2CCc2ccccc21 [Imipramine] | inactive: 0.43
COc1ccc2c(NCCCCCCNc3c4ccccc4nc4cc(OC)ccc34)c3ccccc3nc2c1 [N,N'-bis(3-methoxyacridin-9-yl)hexane-1,6-diamin] | inactive: 1.02
CCNCCCCNCCCCNCCCCNCCCCNCC | inactive: 1.06
COC1(O)C(=O)c2ccccc2OC1(OC)c1ccccc1 (stereo not drawn) [3-Hydroxy-2,3-dimethoxy-2-phenylchromen-4-one] | inactive: 0.92
C=C1C(=O)OC2/C=C(/CO)[C@@H](OC(C)=O)C[C@H](O)/C(C)=C\[C@@H](OC(=O)[C@@H](C)CC)[C@@H]12 (stereo partly drawn) [Eurecurvin] | inactive: 0.91
COc1ccc2ccccc2c1C1OC(=O)c2ccccc21 (stereo not drawn) [3-(2-Methoxynaphthalen-1-yl)-3H-2-benzofuran-1-one] | inactive: 0.79
Cc1cn(C2CC(O)C(CO)O2)c(=O)[nH]c1=O (stereo not drawn) [Deoxythymidin] | inactive: 1.22
COc1ccc2c(=O)oc3c(OC)cc(CCN(C)C)c4c(=O)oc1c2c34 [Thaspine, Acetate] | active: 1.29
C=C1C(=O)O[C@H]2[C@H]1[C@H](OC(=O)/C(C)=C\C)C[C@](O)(CCl)[C@@H]1[C@H](OC(C)=O)C=C(C)[C@]21O [Eupachlorin Acetate] | inactive: 0.995
CCCC(=O)[O-].[Na+] [Sodium Butyrate] | inactive: 1.09

A run of entries of the results above:
SMILES | Kcc2 promoter-driven luciferase activity
CCN(CC)CC(C)(C)C(=O)/C=C/c1ccc(C)cc1 | inactive: 1.13
CN(C)CCCN1c2ccccc2CCc2ccccc21 [Imipramine] | inactive: 0.43
COc1ccc2c(NCCCCCCNc3c4ccccc4nc4cc(OC)ccc34)c3ccccc3nc2c1 [N,N'-bis(3-methoxyacridin-9-yl)hexane-1,6-diamin] | inactive: 1.02
CCNCCCCNCCCCNCCCCNCCCCNCC | inactive: 1.06
COC1(O)C(=O)c2ccccc2OC1(OC)c1ccccc1 (stereo not drawn) [3-Hydroxy-2,3-dimethoxy-2-phenylchromen-4-one] | inactive: 0.92
C=C1C(=O)OC2/C=C(/CO)[C@@H](OC(C)=O)C[C@H](O)/C(C)=C\[C@@H](OC(=O)[C@@H](C)CC)[C@@H]12 (stereo partly drawn) [Eurecurvin] | inactive: 0.91
COc1ccc2ccccc2c1C1OC(=O)c2ccccc21 (stereo not drawn) [3-(2-Methoxynaphthalen-1-yl)-3H-2-benzofuran-1-one] | inactive: 0.79
Cc1cn(C2CC(O)C(CO)O2)c(=O)[nH]c1=O (stereo not drawn) [Deoxythymidin] | inactive: 1.22

Further records follow:

SMILES | Kcc2 promoter-driven luciferase activity
COc1cc(/C=C(\OC(C)=O)c2ccc3c(c2)OCO3)cc(OC)c1OC | inactive: 0.98
CCN(CC)CCNc1ccc(C)c2sc3ccccc3c(=O)c12 [Lucanthone] | active: 2.1
C/C=C/C1=C(Cl)C(=O)[C@@H](Cl)[C@@]1(O)C(=O)OC [Cryptosporiopsin] | inactive: 0.48
CC(C)[Si]1(C(C)C)OCC2OC(n3cnc4c(N)ncnc43)C(N)C2O[Si](C(C)C)(C(C)C)O1 (stereo not drawn) | active: 1.35
N[C@H](C(=O)O)[C@@H]1CC(Cl)=NO1 [Acivicin] | inactive: 1.17
COc1ccc(/C=C2\N=C(c3ccccc3)OC2=O)c(OCc2ccccc2)c1 | inactive: 0.71
NC(=O)C1=C[C@H]2[C@@H]3C=C[C@@]2(O)C(=O)O[C@@H]3O1 [Echinosporin] | inactive: 1.16
Cc1cc(N)c2ccccc2[n+]1CCCCCCCCCC[n+]1c(C)cc(N)c2ccccc21 [Decamine] | inactive: 0.55
CC(C)(C)[Si](C)(C)OCC1CCC(n2cnc3c(N)ncnc32)O1 (stereo not drawn) | inactive: 0.93
COc1cc(/C=C2\S/C(=N/Nc3nc(-c4ccc(Br)cc4)cs3)NC2=O)cc(OC)c1OC | inactive: 0.938
Cc1ccc2c(c1)C1(C)OC(C=CC1=O)O2 (stereo not drawn) [2, 6,8-Dimethyl-] | inactive: 1.03
CC1OC1C(=O)C1(O)C(C)C(O)C23OC2(C(O)c2c(O)cccc2C3=O)C1O (stereo not drawn) [Cervicarcin] | inactive: 0.87
CC12CC(Br)(Br)C(=O)C3C1CCCC32 | inactive: 0.89
CC1=CC(=O)c2ccccc2C1=O [Menadione] | inactive: 0.6
COCCOC(=O)C1=C(O)c2ccccc2S(=O)(=O)N1C | inactive: 1.09
CCNC(=O)OCc1c(COC(=O)NCC)c(-c2ccc(Cl)c(Cl)c2)n2c1CCC2 | inactive: 0.912
